Experimental data as given in patent US20200121803A1.
Changes are numbered by the printed parent chain. These are yes or no findings as the source states them, for the method shown. Some results given as binding are weak or reduced against the parent protein; the word gives no strength.

B1: Ab1 (mouse anti-CD98 hybridoma mAb) (antibody, V domains shown)
VH: EVKLVESGGGLVQPGGSLRLSCATSGFTFTDYYMSWVRQPPGKALEWLGFIRNPANVYTTEYSASVKGRFTISRDNSQSILYLQMNTLRAEDSATYYCARASYGNSEGWFAYWGQGTLVTVSA
VL: DIVMSQSPSSLAVSVGEKVTMSCKSSQNLLYNNNQKNYLAWYQQKPGQSPKLLIYWASTRESGVPDRFTGSGSGTDFTLTISSVKAEDLAVYYCQQYYSYPRTFGGGTKLEIK
B2: Ab3 (mouse anti-CD98 hybridoma mAb) (antibody, V domains shown)
VH: EVKLVESGGGLVQPGNSLRLSCATSGFTFIDYYMSWVRQSPGKALEWLGFIRNKANGYTTEYSASVKGRFTISRDNSQSILYLQMDTLRAEDSATYYCTRDRPAWFVYWGQGTLVTVSA
VL: B1 VL with N28S, N32S, N33S, I81F, K85R, R102Y
B3: Ab5 (mouse anti-CD98 hybridoma mAb) (antibody, V domains shown)
VH: B1 VH with S35T, P54K, V57G, Q78L, G104V
VL: B1 VL with N28S, N32S, N33S, P46L, Q96H
B4: Ab6 (rat anti-CD98 hybridoma mAb) (antibody, V domains shown)
VH: QVQLKESGPGLAQPSQTLSLTCTVSGFSLSTYGVIWLRQPPGKGLEWMGVIWTNGNTNYNSTLKSRLSISRDTSESQVYLQMNSLQTEDTATYYCARHYYDGAYYYGYFDYWGQGVMVTVSS
VL: DIVMTQTPSSQAVSAGEKVTMSCKSSQSLLYSENKKNYLAWYQQKPGQSPKLLIYWASTRESGVPDRFIGSGSGTDFTLTISSVQAEDLAVYYCQQYYYFPYTFGAGTKLELK
B5: Ab9 (rat anti-CD98 hybridoma mAb) (antibody, V domains shown)
VH: B4 VH with A12V, T23A, T31N, L37V, G49A, E75K, Q81K, A103T
VL: B4 VL with S32T, I69M, T103M
B6: Ab7 (rat anti-CD98 hybridoma mAb) (antibody, V domains shown)
VH: B4 VH with A12V, L37V, T53A, E75K, Q81K, A103T
VL: B4 VL with S22N, A106P
B7: Ab10 (rat anti-CD98 hybridoma mAb) (antibody, V domains shown)
VH: EVQLVESGGGLVQPGRSLKLSCAASGFTFSDYAMAWVRQAPKKSLEWVATIIYDGRGTYCRDSVKGRFTISRDNAKSTLYLQMDSLRSEDTATYYCARQGDGTYHYWGYFDYWGQGVMVTVSS
VL: DIVMTQSPSSLAVSAGETVTINCKSSQSLLSSGNQKNYLAWYQQKPGQSPKLLIYWASTRQSGVPDRFIGSGSGTDFTLTISSVQAEDLAIYYCQQYYDTPYTFGAGTKVDLK
B8: Ab15 (rat anti-CD98 hybridoma mAb) (antibody, V domains shown)
VH: B7 VH with A33T, S44G, C60Y, G100S, H105Y
VL: B7 VL with S31F, S82R, T100S, V110L, D111E
B9: Ab11 (rat anti-CD98 hybridoma mAb) (antibody, V domains shown)
VH: B7 VH with S44G, T50G, C60Y, H105Y
VL: B7 VL with K24R, V110L, D111E

molecular target: human CD98 (human); assay: hybridoma screening: ELISA on recombinant CD98-ECD and flow cytometry on CD98-expressing cells

Row | binding | Binder
1 | binds | B1
2 | binds | B2
3 | binds | B3
4 | binds | B4
5 | binds | B5
6 | binds | B6
7 | binds | B7
8 | binds | B8
9 | binds | B9
